From US10023615B2 (priority 2008, dated 2018)

Assay: general procedure: Fmoc solid-phase peptide synthesis; Fmoc-Amide-AM resin; Fmoc-Rink Amide resin; HBTU/HOBt/DIEA in DMF; TBTU/HOBt/DIEA in DMF
Conditions: whole synthesis, scale of the general procedure 0.4 mmol, 0.23 mmol, 0.40 mmol

dqsrpvqpflnIttprkprpprrrqrrkkrg (DQSRPVQPFLNLTTPRKPRPPRRRQRRKKRG; D-amino acids; D-TAT-IB1 (XG-102); VARIANT (1)..(31) /replace=“D-amino acid”)
purity (crude or final not stated): 95.28%
